The record followed here is the supplement of paper PMC10849652.

Sequences of proteins named here, by UniProt entry; tags and fusion partners are left off. A change or cut given only in a name is not applied to a line headed by its entry.
UniProt Q7Z6V5: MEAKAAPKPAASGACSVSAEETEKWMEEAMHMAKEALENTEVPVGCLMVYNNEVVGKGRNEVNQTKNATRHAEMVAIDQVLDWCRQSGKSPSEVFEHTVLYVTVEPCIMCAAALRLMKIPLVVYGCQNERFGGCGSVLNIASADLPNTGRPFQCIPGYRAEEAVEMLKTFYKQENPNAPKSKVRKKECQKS
UniProt Q53H12: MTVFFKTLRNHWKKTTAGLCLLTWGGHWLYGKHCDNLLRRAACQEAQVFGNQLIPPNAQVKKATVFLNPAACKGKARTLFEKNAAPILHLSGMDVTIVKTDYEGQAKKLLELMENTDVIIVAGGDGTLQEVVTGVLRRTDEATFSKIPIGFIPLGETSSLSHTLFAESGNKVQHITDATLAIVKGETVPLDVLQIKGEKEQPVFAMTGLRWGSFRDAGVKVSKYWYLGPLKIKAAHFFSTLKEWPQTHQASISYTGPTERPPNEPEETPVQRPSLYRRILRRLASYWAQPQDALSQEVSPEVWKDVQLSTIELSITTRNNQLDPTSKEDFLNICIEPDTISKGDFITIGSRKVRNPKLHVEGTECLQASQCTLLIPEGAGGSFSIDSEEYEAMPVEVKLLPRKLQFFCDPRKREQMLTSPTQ
UniProt Q13443: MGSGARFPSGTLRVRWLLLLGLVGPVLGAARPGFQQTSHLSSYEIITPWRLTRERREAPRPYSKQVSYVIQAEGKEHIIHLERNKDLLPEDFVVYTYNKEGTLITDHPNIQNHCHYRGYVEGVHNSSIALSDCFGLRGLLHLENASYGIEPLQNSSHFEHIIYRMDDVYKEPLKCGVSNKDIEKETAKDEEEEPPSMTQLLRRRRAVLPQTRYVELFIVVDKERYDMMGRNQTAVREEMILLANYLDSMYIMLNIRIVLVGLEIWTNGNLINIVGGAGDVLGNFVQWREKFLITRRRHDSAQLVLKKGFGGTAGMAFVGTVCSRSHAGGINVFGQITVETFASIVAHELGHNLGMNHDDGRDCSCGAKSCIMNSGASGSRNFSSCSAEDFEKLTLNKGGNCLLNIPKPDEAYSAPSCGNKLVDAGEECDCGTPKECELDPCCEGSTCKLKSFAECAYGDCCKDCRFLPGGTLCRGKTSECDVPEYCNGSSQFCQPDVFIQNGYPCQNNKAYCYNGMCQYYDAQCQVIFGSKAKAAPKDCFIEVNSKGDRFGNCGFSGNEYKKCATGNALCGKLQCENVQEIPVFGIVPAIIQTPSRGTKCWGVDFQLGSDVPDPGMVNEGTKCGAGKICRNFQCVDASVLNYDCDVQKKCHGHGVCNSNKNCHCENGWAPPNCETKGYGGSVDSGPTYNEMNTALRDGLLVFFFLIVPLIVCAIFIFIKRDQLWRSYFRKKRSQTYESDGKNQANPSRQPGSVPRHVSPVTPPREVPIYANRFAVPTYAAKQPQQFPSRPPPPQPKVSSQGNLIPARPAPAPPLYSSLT
UniProt O43865, whole entry, looked up: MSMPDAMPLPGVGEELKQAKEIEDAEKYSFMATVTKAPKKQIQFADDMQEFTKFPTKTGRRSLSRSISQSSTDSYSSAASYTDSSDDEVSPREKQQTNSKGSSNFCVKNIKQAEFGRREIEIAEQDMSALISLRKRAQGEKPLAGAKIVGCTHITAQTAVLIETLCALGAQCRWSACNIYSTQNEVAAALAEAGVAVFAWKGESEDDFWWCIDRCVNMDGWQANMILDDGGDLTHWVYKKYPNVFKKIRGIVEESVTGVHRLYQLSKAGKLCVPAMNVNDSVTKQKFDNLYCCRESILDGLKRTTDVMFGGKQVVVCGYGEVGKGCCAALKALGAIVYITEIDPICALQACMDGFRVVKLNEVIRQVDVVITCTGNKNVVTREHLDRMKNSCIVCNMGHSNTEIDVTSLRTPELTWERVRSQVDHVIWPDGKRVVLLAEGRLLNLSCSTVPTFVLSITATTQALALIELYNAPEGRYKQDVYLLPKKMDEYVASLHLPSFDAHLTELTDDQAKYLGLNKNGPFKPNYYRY
UniProt P52895: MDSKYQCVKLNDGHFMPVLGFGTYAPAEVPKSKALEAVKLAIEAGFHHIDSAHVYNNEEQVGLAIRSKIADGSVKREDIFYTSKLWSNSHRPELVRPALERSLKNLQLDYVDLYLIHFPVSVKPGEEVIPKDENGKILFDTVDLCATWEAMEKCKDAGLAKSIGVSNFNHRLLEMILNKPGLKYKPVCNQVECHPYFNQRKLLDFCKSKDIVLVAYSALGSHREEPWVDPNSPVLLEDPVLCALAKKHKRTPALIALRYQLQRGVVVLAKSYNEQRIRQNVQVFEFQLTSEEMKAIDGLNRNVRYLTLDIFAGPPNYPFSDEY
UniProt P07311: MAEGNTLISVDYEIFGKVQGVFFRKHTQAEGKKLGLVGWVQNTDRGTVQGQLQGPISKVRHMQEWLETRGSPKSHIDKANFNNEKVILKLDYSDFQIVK
UniProt Q9H2P0: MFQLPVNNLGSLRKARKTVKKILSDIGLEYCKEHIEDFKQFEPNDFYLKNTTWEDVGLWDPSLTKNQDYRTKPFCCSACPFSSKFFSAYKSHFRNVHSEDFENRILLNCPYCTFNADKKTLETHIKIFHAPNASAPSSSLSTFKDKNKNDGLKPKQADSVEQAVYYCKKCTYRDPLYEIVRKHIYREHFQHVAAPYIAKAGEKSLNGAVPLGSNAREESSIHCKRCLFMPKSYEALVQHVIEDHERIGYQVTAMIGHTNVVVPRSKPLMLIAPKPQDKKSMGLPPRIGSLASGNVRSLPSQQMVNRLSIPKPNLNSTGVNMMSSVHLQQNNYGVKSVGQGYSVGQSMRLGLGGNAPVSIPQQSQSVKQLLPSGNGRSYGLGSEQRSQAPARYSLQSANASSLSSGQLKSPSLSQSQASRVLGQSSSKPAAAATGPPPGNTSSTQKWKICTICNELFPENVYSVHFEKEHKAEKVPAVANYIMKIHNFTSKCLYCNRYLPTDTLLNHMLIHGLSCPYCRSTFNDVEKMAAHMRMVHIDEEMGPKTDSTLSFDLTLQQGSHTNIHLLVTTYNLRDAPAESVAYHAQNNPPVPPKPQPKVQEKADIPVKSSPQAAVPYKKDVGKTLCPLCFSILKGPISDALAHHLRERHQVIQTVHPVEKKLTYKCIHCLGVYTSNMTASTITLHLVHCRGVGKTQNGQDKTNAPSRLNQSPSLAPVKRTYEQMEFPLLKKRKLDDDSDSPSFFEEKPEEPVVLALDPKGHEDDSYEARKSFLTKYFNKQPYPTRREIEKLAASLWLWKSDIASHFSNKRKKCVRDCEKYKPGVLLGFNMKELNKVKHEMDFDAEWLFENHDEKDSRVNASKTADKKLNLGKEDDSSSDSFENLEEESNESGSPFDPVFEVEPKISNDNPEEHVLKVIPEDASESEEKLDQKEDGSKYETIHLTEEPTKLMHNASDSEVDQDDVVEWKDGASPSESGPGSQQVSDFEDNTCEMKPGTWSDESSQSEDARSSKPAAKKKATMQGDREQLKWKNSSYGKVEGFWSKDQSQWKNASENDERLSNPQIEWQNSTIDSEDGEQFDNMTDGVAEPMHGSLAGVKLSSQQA
UniProt O00154: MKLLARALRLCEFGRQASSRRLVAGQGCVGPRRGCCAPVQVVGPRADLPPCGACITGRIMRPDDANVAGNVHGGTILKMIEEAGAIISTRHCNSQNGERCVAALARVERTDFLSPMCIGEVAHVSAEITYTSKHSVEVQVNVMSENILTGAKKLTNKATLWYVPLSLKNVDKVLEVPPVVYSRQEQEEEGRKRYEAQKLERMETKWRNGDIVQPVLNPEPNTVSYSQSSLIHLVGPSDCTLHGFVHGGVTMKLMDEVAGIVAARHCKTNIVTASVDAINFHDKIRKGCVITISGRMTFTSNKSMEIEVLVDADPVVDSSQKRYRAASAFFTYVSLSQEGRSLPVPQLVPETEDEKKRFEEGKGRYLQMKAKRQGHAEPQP
UniProt Q9H9F9, whole entry, looked up: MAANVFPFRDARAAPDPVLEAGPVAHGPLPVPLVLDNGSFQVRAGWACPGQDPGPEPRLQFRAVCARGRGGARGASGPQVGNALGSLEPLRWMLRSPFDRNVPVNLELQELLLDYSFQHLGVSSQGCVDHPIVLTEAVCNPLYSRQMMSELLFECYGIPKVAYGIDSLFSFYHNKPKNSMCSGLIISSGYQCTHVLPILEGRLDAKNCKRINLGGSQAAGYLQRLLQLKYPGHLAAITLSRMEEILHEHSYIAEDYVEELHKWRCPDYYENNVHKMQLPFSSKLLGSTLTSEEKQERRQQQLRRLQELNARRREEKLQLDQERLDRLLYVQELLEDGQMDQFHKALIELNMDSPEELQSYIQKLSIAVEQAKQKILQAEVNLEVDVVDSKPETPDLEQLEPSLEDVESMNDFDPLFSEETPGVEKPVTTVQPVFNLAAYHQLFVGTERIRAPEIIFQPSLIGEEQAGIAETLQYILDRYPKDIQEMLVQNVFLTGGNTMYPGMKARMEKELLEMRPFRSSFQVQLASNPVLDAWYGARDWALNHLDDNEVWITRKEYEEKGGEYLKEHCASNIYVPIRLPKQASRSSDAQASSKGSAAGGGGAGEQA
UniProt O00468: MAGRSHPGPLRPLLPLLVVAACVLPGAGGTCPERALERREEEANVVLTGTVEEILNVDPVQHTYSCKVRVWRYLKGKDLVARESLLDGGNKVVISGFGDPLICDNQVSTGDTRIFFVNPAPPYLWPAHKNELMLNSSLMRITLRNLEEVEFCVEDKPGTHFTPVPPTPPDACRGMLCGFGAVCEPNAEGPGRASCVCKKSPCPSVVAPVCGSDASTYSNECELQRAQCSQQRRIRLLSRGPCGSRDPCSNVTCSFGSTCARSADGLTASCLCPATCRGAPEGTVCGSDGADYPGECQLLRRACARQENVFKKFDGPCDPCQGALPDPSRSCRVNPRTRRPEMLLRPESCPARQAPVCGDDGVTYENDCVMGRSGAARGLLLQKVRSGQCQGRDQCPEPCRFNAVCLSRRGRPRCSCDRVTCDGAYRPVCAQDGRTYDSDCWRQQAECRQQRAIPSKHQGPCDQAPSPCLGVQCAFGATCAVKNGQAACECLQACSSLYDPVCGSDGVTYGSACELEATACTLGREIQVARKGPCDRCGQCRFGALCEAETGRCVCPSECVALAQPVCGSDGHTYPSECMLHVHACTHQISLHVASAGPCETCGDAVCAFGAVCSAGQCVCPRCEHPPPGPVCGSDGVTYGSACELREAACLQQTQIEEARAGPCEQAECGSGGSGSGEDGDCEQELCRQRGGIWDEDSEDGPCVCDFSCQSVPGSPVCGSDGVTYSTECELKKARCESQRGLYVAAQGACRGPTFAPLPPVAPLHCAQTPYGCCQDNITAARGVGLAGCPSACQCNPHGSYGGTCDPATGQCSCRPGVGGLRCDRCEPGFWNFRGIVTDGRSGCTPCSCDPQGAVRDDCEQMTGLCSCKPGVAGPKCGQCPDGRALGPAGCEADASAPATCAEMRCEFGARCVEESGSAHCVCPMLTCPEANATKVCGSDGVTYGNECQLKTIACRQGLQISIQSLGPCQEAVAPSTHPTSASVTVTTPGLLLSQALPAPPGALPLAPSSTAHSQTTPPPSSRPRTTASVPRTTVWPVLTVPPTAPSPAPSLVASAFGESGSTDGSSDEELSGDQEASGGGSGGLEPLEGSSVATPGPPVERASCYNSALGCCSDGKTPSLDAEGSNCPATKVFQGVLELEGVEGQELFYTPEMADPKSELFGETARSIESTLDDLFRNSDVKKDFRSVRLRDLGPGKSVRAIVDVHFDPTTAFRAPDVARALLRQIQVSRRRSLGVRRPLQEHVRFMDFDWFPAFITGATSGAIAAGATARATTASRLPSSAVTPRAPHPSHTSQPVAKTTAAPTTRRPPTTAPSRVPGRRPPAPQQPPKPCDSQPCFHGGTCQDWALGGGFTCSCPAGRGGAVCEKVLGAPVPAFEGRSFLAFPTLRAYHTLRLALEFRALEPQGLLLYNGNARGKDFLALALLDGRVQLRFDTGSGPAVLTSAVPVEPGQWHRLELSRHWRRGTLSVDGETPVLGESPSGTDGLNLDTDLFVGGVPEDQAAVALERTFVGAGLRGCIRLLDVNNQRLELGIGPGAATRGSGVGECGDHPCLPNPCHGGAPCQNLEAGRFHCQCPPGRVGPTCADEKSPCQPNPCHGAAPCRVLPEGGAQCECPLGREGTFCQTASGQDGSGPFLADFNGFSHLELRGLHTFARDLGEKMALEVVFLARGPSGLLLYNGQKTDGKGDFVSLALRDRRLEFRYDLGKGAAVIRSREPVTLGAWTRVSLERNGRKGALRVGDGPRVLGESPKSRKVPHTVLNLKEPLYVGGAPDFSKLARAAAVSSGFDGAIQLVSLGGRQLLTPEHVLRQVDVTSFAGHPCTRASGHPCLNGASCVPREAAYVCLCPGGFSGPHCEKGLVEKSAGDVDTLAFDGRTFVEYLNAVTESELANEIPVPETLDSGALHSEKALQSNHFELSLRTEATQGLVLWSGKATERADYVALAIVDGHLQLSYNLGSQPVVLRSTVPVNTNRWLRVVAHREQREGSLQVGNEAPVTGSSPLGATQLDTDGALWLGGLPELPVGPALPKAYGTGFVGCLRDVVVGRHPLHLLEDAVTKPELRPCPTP

Some of the results follow.

Compound in this experiment: NCC(=O)Nc1ccc(-n2nc(C(F)(F)F)cc2-c2ccc3c(ccc4ccccc43)c2)cc1
Kind of experiment: log2 fold change, soluble protein after heating vs DMSO (PISA); higher = thermal stabilisation; K562 lysate, 10 uM; active = over 0.2 and 3.5 SD of the protein, either way, in both replicates (recomputed). The procedure, abridged: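 Dounce homogenisation of K562 pellets in PBS pH 7.4 with 1 mM MgCl2 produced a crude extract, used at 1 mg/mL protein. Exposure to 10 μM compound lasted 30 min, and aliquots were then heated for 3 min across 48°C-58°C, pooled and brought to 0.5% NP-40 at 4°C. The supernatant after 21,000xg for 90 min was quantified by TMTpro 16plex LC-MS/MS with channel sums equalised. Duplicate values are given as log-two fold change in thermal stability relative to solvent controls.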
As for ACY1 (UniProt Q03154), the log2 fold change was inactive: -0.004.
For ACTB, A0A2R8Y793 the value was inactive: 0.035; for AKAP8L (UniProt Q9ULX6), inactive: -0.045; for AGFG1 isoform 4 (UniProt P52594), inactive: -0.001.
With ACTR10 (UniProt Q9NZ32), the log2 fold change is inactive: 0.
For AFF1 isoform 2 (UniProt P51825) the value was inactive: 0.019.
Regarding AKAP1 (UniProt Q92667), the log2 fold change was inactive: 0.005.
On to ADAT2 (UniProt Q7Z6V5), for which the log2 fold change is inactive: -0.051.
Then ADIPOR2 (UniProt Q86V24), with inactive: 0.026; and ACTL8 (UniProt Q9H568), with inactive: -0.011; and ACTR1A (UniProt P61163), with inactive: 0.003.
Then AGK (UniProt Q53H12), with inactive: -0.06.
As for ADAM9 (UniProt Q13443), the log2 fold change was inactive: 0.003.
For AHCYL1 (UniProt O43865) the value was inactive: 0.021; for AKIRIN2 (UniProt Q53H80), inactive: 0.087; for AIP (UniProt O00170), inactive: -0.001.
For ACTG1 (UniProt I3L4N8) the value was inactive: -0.131.
In the case of ACTR3B (UniProt Q9P1U1), the log2 fold change was inactive: 0.044.
Regarding AKNA (UniProt Q7Z591), the log2 fold change is inactive: 0.033.
For AKR1C2 (UniProt P52895), the log2 fold change is inactive: -0.008.
For AIFM1 (UniProt O95831) the value was inactive: 0.011.
For AKAP8 (UniProt O43823) the value was inactive: 0.047.
Then ACYP1 (UniProt P07311), with inactive: -0.015; and AHCY (UniProt P23526), with inactive: -0.018.
On to ADNP (UniProt Q9H2P0), for which the log2 fold change was inactive: 0.049.
Regarding ACTR2 (UniProt P61160), the log2 fold change was inactive: 0.012.
For ACOT7 isoform 7 (UniProt O00154) the value was inactive: 0.006; for AGFG2 (UniProt O95081), inactive: 0.11.
Turning to ACTN2, A0A494C031, the log2 fold change was inactive: 0.108.
In the case of ACTR5 (UniProt Q9H9F9), the log2 fold change is inactive: 0.002.
For AGRN (UniProt O00468) the value was inactive: 0.001; for AIFM2 (UniProt Q9BRQ8), inactive: -0.014; for AHCYL2 (UniProt Q96HN2), inactive: -0.003.
For AGA (UniProt P20933) the value was inactive: 0.008.
Then ADA (UniProt P00813), with inactive: 0.035; and ADSL (UniProt P30566), with inactive: 0.027; and AFF4 (UniProt Q9UHB7), with inactive: -0.119.
Consider AGPS (UniProt O00116), for which the log2 fold change was inactive: -0.015.
As to ADPGK (UniProt Q9BRR6), the log2 fold change was inactive: 0.014.
For ACSF3 (UniProt Q4G176) the value was inactive: -0.075.
